Laboratory results: PubChem BioAssay AID1224830 (NIAID, 2016)
In all, the deposit lists about 18,000 reagents; shown is a part drawn at random. About 2,900 of them (16%) count as active. 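Calls are made per well; low scores hint the gene aids the LPS response, high scores that it dampens it.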 Repeated entries: four replicate wells of each siRNA pool.

Assay: 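Genes whose knock-down alters the TNF-alpha reporter response to LPS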 (primary screen)
System: human THP-1 monocytic leukaemia cells, TNF dual-luciferase reporter clone, PMA-differentiated to macrophage-like cells
Reagents: siRNA pool against human genes, 50 nM
Timing: LPS for 4 h, given about 3 days after siRNA transfection
Conditions: bacterial LPS (TLR4 ligand), 10 ng/ml
Measured: 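TNF firefly reporter luminescence divided by renilla, normalised to the plate median, then turned into a robust z-score for each replicate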
Scale: TNF reporter robust z-score: higher = stronger TNF reporter response to LPS
Call rule: 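a well is active when its z-score exceeds 2.8 or falls below -1.5; control wells carry no call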

What did the screen give for SLC25A39?
TNF reporter robust z-score: 0.26; Outcome: inactive

For SLC25A39, what was measured?
TNF reporter robust z-score: 2.23; Outcome: inactive

What is on record for SLC25A39?
TNF reporter robust z-score: 0.35; Outcome: inactive

How did the screen score SLC25A39?
TNF reporter robust z-score: 1.04; Outcome: inactive

For TCIM, how do the results read?
TNF reporter robust z-score: -0.88; Outcome: inactive

For TCIM, what was measured?
TNF reporter robust z-score: -1.08; Outcome: inactive

What did the screen give for TCIM?
TNF reporter robust z-score: -0.82; Outcome: inactive

For TCIM, what was measured?
TNF reporter robust z-score: -0.62; Outcome: inactive

How did the screen score PTN?
TNF reporter robust z-score: -0.13; Outcome: inactive

What is on record for PTN?
TNF reporter robust z-score: 1.22; Outcome: inactive

What is on record for PTN?
TNF reporter robust z-score: 0.45; Outcome: inactive

With PTN, what does the deposit list?
TNF reporter robust z-score: 1.19; Outcome: inactive

With BCAM, what was measured?
TNF reporter robust z-score: 1.32; Outcome: inactive

Which result is listed for BCAM?
TNF reporter robust z-score: 1.96; Outcome: inactive

What did the screen give for BCAM?
TNF reporter robust z-score: 1.31; Outcome: inactive

What did the screen give for BCAM?
TNF reporter robust z-score: 0.89; Outcome: inactive

With NDST1, what was measured?
TNF reporter robust z-score: 0.91; Outcome: inactive

Which result is listed for NDST1?
TNF reporter robust z-score: 1.44; Outcome: inactive

For NDST1, how do the results read?
TNF reporter robust z-score: 0.03; Outcome: inactive

With NDST1, how do the results read?
TNF reporter robust z-score: 0.72; Outcome: inactive

What did the screen give for TYK2?
TNF reporter robust z-score: 0.48; Outcome: inactive

Which result is listed for TYK2?
TNF reporter robust z-score: 1.75; Outcome: inactive

How did the screen score TYK2?
TNF reporter robust z-score: -0.08; Outcome: inactive

Which result is listed for TYK2?
TNF reporter robust z-score: 0.95; Outcome: inactive

With ERAP2, what was measured?
TNF reporter robust z-score: -0.32; Outcome: inactive

What did the screen give for ERAP2?
TNF reporter robust z-score: 0.24; Outcome: inactive

For ERAP2, what does the deposit list?
TNF reporter robust z-score: 0; Outcome: inactive

For ERAP2, what does the deposit list?
TNF reporter robust z-score: 0.54; Outcome: inactive

What did the screen give for C9orf50?
TNF reporter robust z-score: -0.56; Outcome: inactive

How did the screen score C9orf50?
TNF reporter robust z-score: -0.34; Outcome: inactive

How did the screen score C9orf50?
TNF reporter robust z-score: -0.7; Outcome: inactive

What is on record for C9orf50?
TNF reporter robust z-score: -0.42; Outcome: inactive

Laid out differently: entries from further up.
NDST1
- TNF reporter robust z-score: 0.72
- Outcome: inactive

TYK2
- TNF reporter robust z-score: 0.48
- Outcome: inactive

TYK2
- TNF reporter robust z-score: 1.75
- Outcome: inactive

TYK2
- TNF reporter robust z-score: -0.08
- Outcome: inactive

TYK2
- TNF reporter robust z-score: 0.95
- Outcome: inactive

ERAP2
- TNF reporter robust z-score: -0.32
- Outcome: inactive

ERAP2
- TNF reporter robust z-score: 0.24
- Outcome: inactive

More entries:
With ESYT2, how do the results read?
TNF reporter robust z-score: -0.67; Outcome: inactive

With ESYT2, what was measured?
TNF reporter robust z-score: -1.24; Outcome: inactive

For ESYT2, what does the deposit list?
TNF reporter robust z-score: -1.08; Outcome: inactive

For ESYT2, how do the results read?
TNF reporter robust z-score: 0.11; Outcome: inactive

How did the screen score LIMCH1?
TNF reporter robust z-score: 0.21; Outcome: inactive

For LIMCH1, how do the results read?
TNF reporter robust z-score: -0.1; Outcome: inactive

For LIMCH1, how do the results read?
TNF reporter robust z-score: -0.13; Outcome: inactive

Which result is listed for LIMCH1?
TNF reporter robust z-score: -0.06; Outcome: inactive

With PARP6, what was measured?
TNF reporter robust z-score: 3.08; Outcome: active

With PARP6, what does the deposit list?
TNF reporter robust z-score: -0.79; Outcome: inactive

With PARP6, what was measured?
TNF reporter robust z-score: -0.26; Outcome: inactive

What did the screen give for PARP6?
TNF reporter robust z-score: 0.77; Outcome: inactive

For SRM, how do the results read?
TNF reporter robust z-score: -0.59; Outcome: inactive

For SRM, what does the deposit list?
TNF reporter robust z-score: -0.29; Outcome: inactive

What did the screen give for SRM?
TNF reporter robust z-score: -0.77; Outcome: inactive

What is on record for SRM?
TNF reporter robust z-score: 0.16; Outcome: inactive
